Data published in paper PMC8991007, “Benzylic Dehydroxylation of Echinocandin Antifungal Drugs Restores Efficacy against Resistance Conferred by Mutated Glucan Synthase” (Journal of the American Chemical Society, 2022).

Tested on: THLE-2 cells
Assay: cells
Assay type: cell-based
Conditions: Homo sapiens, THLE-2, 72 h, read-out: IC50 value (THLE-2 viability)
Protocol: The effects of ANF and RZF and their dehydroxylated derivatives 1 and 2 on the viability of human cells were further evaluated in an assay with THLE-2 cells, which are a transformed human liver epithelial cell line. These cells express phenotypic characteristics of normal adult liver epithelial cells.
THLE-2 cells (ATCC, cat. no. CRL2706) were cultured in 384-well plates coated with BEBM (Lonza, cat. no CC3170) containing 100 μg/mL BSA, 1:100 fibronectin (Sigma, cat. no. F0895), and a 1:100 PureCol EZ Gel Solution (Sigma, cat. no. 5074) for 50–60 min at 37 °C. THLE-2 cells were plated at a density of 2.5 × 10^3 cells/well in the coated plates in a total volume of 20 μL. Culture media were BEGM supplemented with 5 ng/mL hEGF (Sigma, cat. no. E5036), 70 ng/mL phosphoethanolamine (Sigma, cat. no. P0503), and 10% fetal bovine serum. Plates were incubated overnight at 37 °C, 95% humidity, and 5% CO2. The culture medium was replaced with 50 μL of a fresh medium, and compounds were applied to the cells in triplicate. Plates were cultured for another 72 h, and ATP was quantified using a CellTiter-Glo kit (Promega #G7573) according to the manufacturer’s protocol. The luminescence signal was detected using a PHERAstar FS (BMG Labtech).

CC/C(=C(\c1ccccc1)c1ccc(OCCN(C)C)cc1)c1ccccc1 [Tamoxifen]
IC50: ~20 µM
